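Whole-parasite assay of Trypanosoma brucei over 72 hours; the read-out is not stated. Compounds at 30 µM. Direction is inferred from retests: higher values go with stronger inhibition. Values scatter widely below zero; nearly all retest evidence comes from the higher of the two concentrations used. Of about 64,000 compounds tested this way, about 940 (1.5%) reached 50% or more in at least one test.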

Values are the deposited “Percent Effect”, in %. How 0% and 100% were set is not recorded. Most values in the screen are low, and negative values occur. This is an unselected part of the compounds tested.

| # | SMILES | percent effect |
|---|---|---|
| 1 | `COc1cc(C)cc(C(C(=O)O)N(C)CCN2CCCC2)c1OC` (stereo not drawn) | -0.819 |
| 2 | `O=C(O)C(F)(F)F.[H][C@@]12CN(C(=O)c3ccccc3)CCO[C@]1([H])CN(c1ccc(C)nn1)C2` | -71.38 |
| 3 | `CC(=O)Nn1c(C)cc(CN2CCC(C(=O)N3CCCC3)CC2)c1C` | -2.682 |
| 4 | `O=C(Nc1ccc(-n2ccnc2)c(F)c1)C1CCN(C(=O)C2CC2)CC1` | -54.62 |
| 5 | `CCOC(=O)[C@H]1[C@@H](O)C(=O)N(C)C12CCN(S(=O)(=O)CC)CC2` | 41.58 |
| 6 | `Cc1nnc(C2Cc3ccccc3CN2Cc2ncc(C(C)(C)C)o2)o1` (stereo not drawn) | -81.65 |
| 7 | `Cc1cc(NC(=O)NCCc2cccs2)n(C)n1` | -27.13 |
| 8 | `Cc1cnn(C2CCCN(C(=O)c3cc4nc(C)ccc4o3)C2)c1` (stereo not drawn) | 0.9394 |
| 9 | `CS(=O)(=O)CCSc1n[nH]c(-c2ccc3c(c2)CCC3)n1` | -33 |
| 10 | `CC(O)(CNC(=O)NCCc1ccc2c(c1)CCO2)c1ccsc1` (stereo not drawn) | -6.175 |
| 11 | `CN(CCCOc1ccccc1Cl)C(=O)CN1CCNC1=O` | -20.31 |
| 12 | `Cc1nn(C)c(C)c1C1CCCN1Cc1nc(-c2ccco2)oc1C` (stereo not drawn) | -34.41 |
| 13 | `O=C(O)C(F)(F)F.O=C(O)C(F)(F)F.[H][C@]12CC(=O)N(Cc3cccc(C)n3)[C@@]1([H])CCN2Cc1ccc(F)cc1` | 7.509 |
| 14 | `CCc1c(C)n(CCOC)c2nc3ccccc3n2c1=O` | 3.437 |
| 15 | `O=C(NC1CC1)C1CNCCN1C(=O)CCc1ccc2c(c1)OCO2` (stereo not drawn) | -14.46 |
| 16 | `O=C(NCc1csc(Br)c1)c1ccncc1` | 0.735 |
| 17 | `Cc1noc(C)c1CCC(=O)N1CCCC(n2cccn2)C1` (stereo not drawn) | -23.27 |
| 18 | `O=C(c1ccc(-n2cccn2)nc1)N1CCC(Nc2cccnn2)CC1` | -18.11 |
| 19 | `NC(=O)NCC1CCCCN1C(=O)c1cccc(C(F)(F)F)c1` (stereo not drawn) | 37.87 |
| 20 | `COc1ccccc1CN(CC1CCCO1)C(=O)c1csnn1` (stereo not drawn) | -18.34 |
| 21 | `CCOC(=O)c1cc(C(C)(O)CCC=C(C)C)on1` (stereo not drawn) | -10.68 |
| 22 | `CNC(=O)[C@@H]1C[C@H](N)CN1Cc1cc2cc(OC)ccc2nc1O` | -17.96 |
| 23 | `CCC(=O)N1Cc2nnc(C3CCOCC3)n2C(Cc2c[nH]cn2)C1` (stereo not drawn) | -22.33 |
| 24 | `COCc1nnc(C(=O)N(C)Cc2cnc3ccccn23)o1` | -11.55 |
| 25 | `O=S(=O)(CCc1ccccc1Cl)CC(O)CO` (stereo not drawn) | -5.262 |
| 26 | `OCCC1CN(c2ncnc3[nH]cnc23)CCN1Cc1ccccc1F` (stereo not drawn) | -56.26 |
| 27 | `[H][C@@]12C[C@H](C)O[C@@]1([H])CCN(C(=O)c1ccncn1)C2` | -2.816 |
| 28 | `COc1ccc(F)c(CN(CCCn2ccnc2)Cc2ccc(C)s2)c1.O=C(O)CC(O)(CC(=O)O)C(=O)O` | -24.6 |
| 29 | `NC(=O)Nc1cccc(CNC(=O)CCCOCc2ccccc2)c1` | -23.1 |
| 30 | `Cc1ccc(CN(CCCN2CCOCC2)Cc2[nH]cnc2C)o1.O=C(O)CC(O)(CC(=O)O)C(=O)O` | -12.11 |
| 31 | `Cn1cnnc1C1CCCN(C(=O)NCCc2ccccn2)C1` (stereo not drawn) | -2.605 |
| 32 | `Cc1nnc(SC2CCc3ccccc3NC2=O)n1C` (stereo not drawn) | -33.54 |
| 33 | `[H][C@@]12CN(Cc3nccs3)C[C@]1([H])CN(C(=O)c1cscn1)C2` | -17.82 |
| 34 | `CCc1nc(CN(C)CC(=O)OC(C)(C)C)cs1` | -26.12 |
| 35 | `N#Cc1ccccc1N1CCCN(C(=O)CCc2ccsc2)CC1` | 8.653 |
| 36 | `c1ccc(-n2cc(CNCC3CCCN3c3cccnn3)cn2)cc1` (stereo not drawn) | 6.279 |
| 37 | `FC(F)Oc1ccc(CNCc2cc(Br)c3c(c2)OCO3)cc1` | 2.284 |
| 38 | `Cc1cc(F)c(S(=O)(=O)N(C)CCn2cccn2)cc1F` | -0.6746 |
| 39 | `CCCOC(=O)N1CCn2nc(-c3nc4ccccc4n3C)cc2C1` | -67.84 |
| 40 | `Cc1nc(C(=O)N2CCCC2c2noc(C3CC3)n2)c[nH]1` (stereo not drawn) | 13.55 |
| 41 | `N#CC1(c2ccccc2)CCN(C(=O)C2CCCN(C(N)=O)C2)CC1` (stereo not drawn) | -50.05 |
| 42 | `O=C(O)C(F)(F)F.[H][C@@]12CCN(Cc3ccc4c(c3)OCO4)C[C@]1([H])O[C@@H](C(=O)NCC1CC1)C2` | 10.09 |
| 43 | `Cc1cc(C2CCCN(C(=O)CN3CCN(C)CC3)C2)n[nH]1` (stereo not drawn) | 19.08 |
| 44 | `CC(C)n1cnnc1CN(C)C(=O)C1CCCN(CC(N)=O)C1` (stereo not drawn) | -35.82 |
| 45 | `C/C=C(\C)CN1C[C@H](NC(=O)c2cc[nH]c2C)[C@@H](C2CC2)C1` | 34.52 |
| 46 | `O=C(CN1CCCC1Cn1cncn1)Nc1ccc(Cl)cn1` (stereo not drawn) | -0.4373 |

From ChEMBL document CHEMBL3988442, “University of Dundee, Small-Polar-MMV Screening Library” (2021).